Source: article PMC7819943, “Rice protein-binding microarrays: a tool to detect cis-acting elements near promoter regions in rice”
The other results are listed elsewhere or left out.

Each sequence was assayed against T1, OsSMF1 (Oryza sativa, UniProt Q6ZLB0 1-436) (assay: protein-binding microarray (RPBM); PBS, 2% BSA, 51.3 ng/ul salmon testes DNA, 50 uM zinc acetate, 200 nM TF, 25 C, 1 h; high values mean tight binding). Details: protein: recombinant; tags: N-terminal polyhistidine and DsRed monomer fusion (pET32a); chain copies: 2; label: CyDye5-dUTP incorporated in the synthesized complementary strand; 3' TTTTT single-stranded linker to array surface; dsDNA, one strand shown.
T1 sequence: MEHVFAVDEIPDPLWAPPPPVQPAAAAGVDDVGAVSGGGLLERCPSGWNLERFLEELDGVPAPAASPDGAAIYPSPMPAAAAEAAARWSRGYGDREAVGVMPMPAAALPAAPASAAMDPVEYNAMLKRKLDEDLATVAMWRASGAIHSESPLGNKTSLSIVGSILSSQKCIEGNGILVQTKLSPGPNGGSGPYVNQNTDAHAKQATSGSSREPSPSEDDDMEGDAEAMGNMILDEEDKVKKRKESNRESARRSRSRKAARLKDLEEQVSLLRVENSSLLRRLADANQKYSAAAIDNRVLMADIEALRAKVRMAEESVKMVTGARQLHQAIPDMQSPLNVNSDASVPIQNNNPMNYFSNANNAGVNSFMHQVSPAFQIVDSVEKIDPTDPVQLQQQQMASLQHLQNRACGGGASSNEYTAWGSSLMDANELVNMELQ
How it was run: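 A custom Agilent array was converted to double-stranded form by primer extension with Cy5-dUTP and blocked with 2% BSA. Protein at 200 nM in PBS with 2% BSA, salmon testes DNA and 50 µM zinc acetate was applied for 1 h at 25 °C, followed by washing. The proteins were polyhistidine–DsRed N-terminal fusions of transcription factors, expressed in E. coli BL21-CodonPlus and Ni–NTA-purified. The binding signal is per-feature fluorescence intensity (arbitrary units) from an Axon 4000B scanner.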
“GTCATCCTAGCAGCCAAAATGATGTGGCTACCCCAGACCCCGGAGTCACCTAGTGCAG” was tested, and the binding signal was 5150 fluorescence intensity (a.u.).
With “AGCATTCAATGGTCATTCACTCGTCCTTGCTGACTTGCTGCGGAGTCACCTAGTGCAG” the binding signal was 4040 fluorescence intensity (a.u.).
For “GGAGAATTCTCTGTTGCATCGTTGACAGACGTGTATTCCTCGGAGTCACCTAGTGCAG”, the binding signal was 5050 fluorescence intensity (a.u.).
For “GGCGGCGTTCGCGGCGGCGACGTGGGCGTACCTGACGGCGCGGAGTCACCTAGTGCAG”, the binding signal was 3590 fluorescence intensity (a.u.).
“GAAGAAGATTGGGTTGCTAACACGTGGGTCTCACGCTGACCGGAGTCACCTAGTGCAG” was tested, and the binding signal was 6580 fluorescence intensity (a.u.).
For “CCTCTTGTTTCCGCCATGCCGTGGGCTCAAACCGCCGGCGCGGAGTCACCTAGTGCAG”, the binding signal was 4140 fluorescence intensity (a.u.).
With “CCCTCGGGGAGAGCCACGTGGGTTTGAGGGCGGCCTCCTCCGGAGTCACCTAGTGCAG” the binding signal was 10700 fluorescence intensity (a.u.).
With “AGAAAGAAAGCTCAGTTTCCAAGCGACAAAGCGATCAGTACGGAGTCACCTAGTGCAG” the binding signal was 23700 fluorescence intensity (a.u.).
“TAGGAGAAACACGTCAGCTACAGTGTTGAGCTGGATGAGTCGGAGTCACCTAGTGCAG” was tested, and the binding signal was 6830 fluorescence intensity (a.u.).
With “GGTATGATTAATCACACACACAAACGAGAAGTCCAATTCGCGGAGTCACCTAGTGCAG” the binding signal was 27400 fluorescence intensity (a.u.).
“GGGGAAGGGAGGGAGGAGTGTATAGAGTATAGGGGAGCGGCGGAGTCACCTAGTGCAG” was tested, and the binding signal was 3170 fluorescence intensity (a.u.).
For “GGAGGGGTATGGAAGGGATCAAAATCAAATTTTAGGGGTACGGAGTCACCTAGTGCAG”, the binding signal was 3160 fluorescence intensity (a.u.).
For “CTGACCCTTGCATCCCAACTACTAGATATAATTGTGGATACGGAGTCACCTAGTGCAG”, the binding signal was 3610 fluorescence intensity (a.u.).
“ACACGTGCCTCGTCCCACCTGTCCGCGTCACCCGTCTCTCCGGAGTCACCTAGTGCAG” was tested, and the binding signal was 7100 fluorescence intensity (a.u.).
For “CACGCAGTAGGGATCGAGGATGTCGTACGCGTACCTCTTCCGGAGTCACCTAGTGCAG”, the binding signal was 26100 fluorescence intensity (a.u.).
With “AGGGGCACCCTCGTAATTTCCACGCACCCAAATTTCAAACCGGAGTCACCTAGTGCAG” the binding signal was 3630 fluorescence intensity (a.u.).
In the case of “TGAGAGTTACTGATCGAACACGTACTATAATTATATAATACGGAGTCACCTAGTGCAG”, the binding signal is reported as 3280 fluorescence intensity (a.u.).
With “CAAGATGAATCTTTTAAGCCTAATTGCGTCATGATTTGACCGGAGTCACCTAGTGCAG” the binding signal was 7370 fluorescence intensity (a.u.).
“AGGCCGCGCTCCTCACCCGCCACGCGCTCCACTCCAACTGCGGAGTCACCTAGTGCAG” was tested, and the binding signal was 4680 fluorescence intensity (a.u.).
With “TCGGTCGTTCCGCCGTAGGCGTGGCCGGGGAGTAATCCTACGGAGTCACCTAGTGCAG” the binding signal was 32000 fluorescence intensity (a.u.).
In the case of “GCCGATTTGTTCACGTGACGTGTGCAGGCACACACTGGCCCGGAGTCACCTAGTGCAG”, the binding signal is reported as 15400 fluorescence intensity (a.u.).
For “GGTATATATATATATTTCATCGAGTACACATCACAATTTGCGGAGTCACCTAGTGCAG”, the binding signal was 4280 fluorescence intensity (a.u.).
“TGCTTGCATCAAAGCCCCAGTAGCTAAGCTAACAGTAGTGCGGAGTCACCTAGTGCAG” was tested, and the binding signal was 18400 fluorescence intensity (a.u.).
In the case of “ATAAAATATTTTGATGCACATTTTACAAATTTTACTGGTGCGGAGTCACCTAGTGCAG”, the binding signal is reported as 3420 fluorescence intensity (a.u.).
In the case of “TCCGACTCGTCGCCGTCGTTGCCGTCATTAAACCGGCTTTCGGAGTCACCTAGTGCAG”, the binding signal is reported as 3590 fluorescence intensity (a.u.).
With “CTCTCACCATGCAAGATTTCCTTAGATTTGAGTTGAGTCACGGAGTCACCTAGTGCAG” the binding signal was 3150 fluorescence intensity (a.u.).
With “TCGCTGATGAAAATGATGAGCATGGTGAGGGGAAGAAGGGCGGAGTCACCTAGTGCAG” the binding signal was 22400 fluorescence intensity (a.u.).
With “GTATTAAGATGTGTCATATCCAGCGTTTACAACTCCGAGACGGAGTCACCTAGTGCAG” the binding signal was 6050 fluorescence intensity (a.u.).
With “ACCATCACTAACTTTAGATGACGCGATGTGGATGTAGGTCCGGAGTCACCTAGTGCAG” the binding signal was 6640 fluorescence intensity (a.u.).
“TCAGCGGGCATGGCCGGGGATTAACGCGCGCGCGTGGACACGGAGTCACCTAGTGCAG” was tested, and the binding signal was 3770 fluorescence intensity (a.u.).
“CCGCTCGCCGCCGGTTCGGAGACCGCGTCACTGATTGGCCCGGAGTCACCTAGTGCAG” was tested, and the binding signal was 4860 fluorescence intensity (a.u.).
In the case of “ATTGTGAAGAAATTTTGCCACATTTGCATTACCATTGGCTCGGAGTCACCTAGTGCAG”, the binding signal is reported as 3860 fluorescence intensity (a.u.).
“CTGCACGGCCGCCATGATTCATCATCATTCGTAGGCTCATCGGAGTCACCTAGTGCAG” was tested, and the binding signal was 3380 fluorescence intensity (a.u.).
In the case of “GCCAAGGTGGTGGACGCCCGACGTGAAGCTGCCCTCCACCCGGAGTCACCTAGTGCAG”, the binding signal is reported as 3250 fluorescence intensity (a.u.).
In the case of “CCCACATGTCCGTGACCCCGCAACGTCTCCACCTTTTCGGCGGAGTCACCTAGTGCAG”, the binding signal is reported as 3540 fluorescence intensity (a.u.).
“GGCCGTACGTCACGACTCCGTACGTGGCCACGTTACGCAGCGGAGTCACCTAGTGCAG” was tested, and the binding signal was 6440 fluorescence intensity (a.u.).
In the case of “AAAGAAAAGCACGAATGATGTGTATTTTAACGTGTACATGCGGAGTCACCTAGTGCAG”, the binding signal is reported as 4870 fluorescence intensity (a.u.).
In the case of “GGAAGGCCACGACAATCCATTTTAAGTCGTATAATTAACCCGGAGTCACCTAGTGCAG”, the binding signal is reported as 3180 fluorescence intensity (a.u.).
In the case of “CATGCCGGCTAAACACATGCATGCGTGTGTGATGCGTGTGCGGAGTCACCTAGTGCAG”, the binding signal is reported as 4980 fluorescence intensity (a.u.).
For “CGTCATCCTCGTCATTGAATCCCTTGTCATCGAAGAACGGCGGAGTCACCTAGTGCAG”, the binding signal was 5130 fluorescence intensity (a.u.).
With “TTGCTGCAGTTCTCGTATGCTTCCTAGTACTATCTGCGTTCGGAGTCACCTAGTGCAG” the binding signal was 3230 fluorescence intensity (a.u.).
In the case of “CTTCTGTTGCTCTCTTCAACAACTGTATGGGCCCAAGCCCCGGAGTCACCTAGTGCAG”, the binding signal is reported as 19000 fluorescence intensity (a.u.).
